Source: PMC9438803 (Life Science Alliance, 2021)
Results are given in words; binding and its absence hold for the method and conditions named. For some of these results: Binding seen in cells or lysates may run through a third protein. Some binding calls cover weakened binding; strength is not graded here.

Sequences of proteins named here, by UniProt entry; tags and fusion partners are left off. A change or cut given only in a name is not applied to a line headed by its entry. Residues count along the entry.
UniProt P11388: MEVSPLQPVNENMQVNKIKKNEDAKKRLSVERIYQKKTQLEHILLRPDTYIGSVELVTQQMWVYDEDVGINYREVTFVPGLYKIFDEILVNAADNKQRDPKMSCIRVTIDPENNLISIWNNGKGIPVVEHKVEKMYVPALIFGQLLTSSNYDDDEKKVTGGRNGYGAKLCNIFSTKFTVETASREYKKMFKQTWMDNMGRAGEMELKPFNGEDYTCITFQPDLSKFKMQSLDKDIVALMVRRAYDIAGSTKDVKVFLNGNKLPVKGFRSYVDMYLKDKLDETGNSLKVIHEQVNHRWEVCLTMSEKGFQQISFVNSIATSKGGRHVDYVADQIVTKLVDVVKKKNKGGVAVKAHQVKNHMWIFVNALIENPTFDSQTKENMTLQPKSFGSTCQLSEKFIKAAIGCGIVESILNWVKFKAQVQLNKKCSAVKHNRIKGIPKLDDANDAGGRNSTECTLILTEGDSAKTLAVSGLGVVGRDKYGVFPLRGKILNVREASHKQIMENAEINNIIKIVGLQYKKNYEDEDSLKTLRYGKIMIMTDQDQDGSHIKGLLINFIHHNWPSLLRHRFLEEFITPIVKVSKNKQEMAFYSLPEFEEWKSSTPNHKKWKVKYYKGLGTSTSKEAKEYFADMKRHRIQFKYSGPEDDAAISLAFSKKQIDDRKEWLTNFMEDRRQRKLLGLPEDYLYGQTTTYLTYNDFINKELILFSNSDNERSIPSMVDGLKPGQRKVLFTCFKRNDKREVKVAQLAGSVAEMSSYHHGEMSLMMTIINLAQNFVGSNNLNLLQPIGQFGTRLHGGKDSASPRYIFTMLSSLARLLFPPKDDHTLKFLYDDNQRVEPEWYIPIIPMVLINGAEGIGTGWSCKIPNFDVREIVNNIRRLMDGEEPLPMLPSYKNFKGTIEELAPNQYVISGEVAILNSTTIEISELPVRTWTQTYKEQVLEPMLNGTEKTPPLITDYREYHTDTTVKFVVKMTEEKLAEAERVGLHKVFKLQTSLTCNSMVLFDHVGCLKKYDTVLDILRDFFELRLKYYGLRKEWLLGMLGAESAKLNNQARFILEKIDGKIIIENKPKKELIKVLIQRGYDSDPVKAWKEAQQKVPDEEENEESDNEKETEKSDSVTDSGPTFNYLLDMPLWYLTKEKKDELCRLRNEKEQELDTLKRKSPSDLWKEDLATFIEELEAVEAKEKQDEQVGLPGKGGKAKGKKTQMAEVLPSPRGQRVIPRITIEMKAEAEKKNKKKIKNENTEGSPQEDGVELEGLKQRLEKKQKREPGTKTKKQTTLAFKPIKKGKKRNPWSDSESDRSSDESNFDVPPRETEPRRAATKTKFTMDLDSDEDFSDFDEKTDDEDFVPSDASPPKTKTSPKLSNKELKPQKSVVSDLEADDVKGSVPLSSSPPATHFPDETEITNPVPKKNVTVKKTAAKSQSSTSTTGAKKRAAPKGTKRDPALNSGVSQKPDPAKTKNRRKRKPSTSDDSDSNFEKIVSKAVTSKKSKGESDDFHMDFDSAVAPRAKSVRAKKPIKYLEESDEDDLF
recombinant human Topoisomerase 2a lacking the unstructured C-terminal domain (1-1,217): residues 1-1217 of P11388
UniProt Q9GZS1: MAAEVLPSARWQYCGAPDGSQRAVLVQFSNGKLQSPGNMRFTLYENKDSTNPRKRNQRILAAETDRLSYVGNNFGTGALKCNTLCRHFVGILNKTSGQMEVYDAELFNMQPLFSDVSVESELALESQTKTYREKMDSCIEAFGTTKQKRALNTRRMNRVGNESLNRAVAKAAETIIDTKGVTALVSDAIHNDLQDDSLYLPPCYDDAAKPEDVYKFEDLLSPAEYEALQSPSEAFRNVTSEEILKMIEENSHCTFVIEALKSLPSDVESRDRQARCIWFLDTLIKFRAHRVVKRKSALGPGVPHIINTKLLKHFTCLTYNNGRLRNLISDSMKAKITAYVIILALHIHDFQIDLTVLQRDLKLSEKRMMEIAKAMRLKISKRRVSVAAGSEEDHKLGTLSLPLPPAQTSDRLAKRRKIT
UniProt P0DPB6: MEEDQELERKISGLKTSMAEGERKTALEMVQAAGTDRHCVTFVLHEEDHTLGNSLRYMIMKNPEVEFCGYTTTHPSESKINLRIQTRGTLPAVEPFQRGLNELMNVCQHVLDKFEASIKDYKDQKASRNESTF
UniProt O15160: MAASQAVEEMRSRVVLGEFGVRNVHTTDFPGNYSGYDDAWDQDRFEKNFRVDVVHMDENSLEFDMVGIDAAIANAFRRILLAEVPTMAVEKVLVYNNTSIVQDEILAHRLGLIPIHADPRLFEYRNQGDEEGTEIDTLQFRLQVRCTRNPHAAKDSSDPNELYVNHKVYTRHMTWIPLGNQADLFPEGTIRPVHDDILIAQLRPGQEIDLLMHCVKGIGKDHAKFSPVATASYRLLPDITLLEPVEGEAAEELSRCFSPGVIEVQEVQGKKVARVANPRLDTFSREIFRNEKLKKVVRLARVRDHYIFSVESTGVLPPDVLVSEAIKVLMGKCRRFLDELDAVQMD
UniProt O15446: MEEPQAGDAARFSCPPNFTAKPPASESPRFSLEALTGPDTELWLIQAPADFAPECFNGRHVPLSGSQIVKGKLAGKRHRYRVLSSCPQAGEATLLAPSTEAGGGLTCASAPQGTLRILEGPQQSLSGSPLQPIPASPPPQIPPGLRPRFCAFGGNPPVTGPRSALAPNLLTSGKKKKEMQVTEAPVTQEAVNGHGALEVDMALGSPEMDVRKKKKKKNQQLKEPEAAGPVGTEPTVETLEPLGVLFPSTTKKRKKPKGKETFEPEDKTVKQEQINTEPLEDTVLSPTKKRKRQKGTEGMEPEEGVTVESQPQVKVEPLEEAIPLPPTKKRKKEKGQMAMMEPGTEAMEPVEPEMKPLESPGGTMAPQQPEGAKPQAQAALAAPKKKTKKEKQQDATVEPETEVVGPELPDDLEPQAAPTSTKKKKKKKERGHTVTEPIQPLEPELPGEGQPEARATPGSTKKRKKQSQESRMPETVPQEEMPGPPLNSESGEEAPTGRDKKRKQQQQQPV

Tests used:
[1] = biological target: Topoisomerase 2a, endogenous in U2OS nuclear extract (human (endogenous in U2OS)) (UniProt P11388); test: co-IP; U2OS nuclear extract diluted to 150 mM KCl and treated with benzonase; anti-Top2a antibody cross-linked to Protein A magnetic beads, 1 h at 4°C; Western blot with anti-UBF, anti-RPA49 and anti-Top2a
[2] = biological target: recombinant human Topoisomerase 2a lacking the unstructured C-terminal domain (1-1,217) (human) (UniProt P11388); test: native gel or EMSA; blue-native PAGE, 3-12% gradient gel; five times molar excess of MBP-only or tagged dock II over Top2a ΔC (1-1,217); 20 mM Hepes pH 8.0, 150 mM NaCl, 50 mM KCl, 1 mM MgCl2, 2% glycerol, 2 mM β-mercaptoethanol; 30 min at room temperature; Coomassie stained; both purified
[3] = biological target: RNA polymerase I subunit RPA1 with genomic C-terminal sfGFP fusion (human (endogenous in HeLa)) (UniProt O95602); test: affinity purification by RPA1-sfGFP, subunits seen in the cryo-EM density; hPol I purified from HeLa POLR1A-sfGFP lysate by RPA1-sfGFP; subunits with connected density in the reconstruction, contacts with RPA1 not told
[4] = biological target: recombinant human RPA49 full length with N-terminal 6xHis-tag (human) (UniProt Q9GZS1); test: co-purification (Ni-NTA by the tag on one chain, MonoS, size exclusion); human RPA49 with N-terminal 6xHis-tag and untagged RPA34 co-expressed in E. coli; Ni-NTA with 1 M NaCl and ATP washes, MonoS, Superdex200 in 50 mM Tris pH 7.5, 150 mM NaCl, 5 mM DTT

## RNA polymerase I subunit RPA49, endogenous in U2OS nuclear extract (from UniProt Q9GZS1 1-419)
[1]
  binding: binds

## human dock II domain, minimal fragment (RPA1 1081-1146) with C-terminal His-MBP-tag (from UniProt O95602 1081-1146) (domain or fragment)
[2]
  binding: no binding (tested: Five times molar excess)

## RNA polymerases I and III subunit RPAC2 (from UniProt P0DPB6 1-133)
[3]
  binding: binds

## RNA polymerases I and III subunit RPAC1 (from UniProt O15160 1-346)
[3]
  binding: binds

## recombinant human RPA34 full length, untagged (from UniProt O15446 1-510)
[4]
  binding: binds

## recombinant human RPA34 residues 1-343, untagged (from UniProt O15446 1-343) (domain or fragment)
[4]
  binding: binds

B1: human dock II domain, full-length fragment (RPA1 1060-1155) with C-terminal His-MBP-tag (domain or fragment, UniProt O95602 1060-1155, looked up)
chain: ADPKKALHHFRAIKKWQSKHPNTLLRRGAFLSYSQKIQEAVKALKLESENRNGRSPGTQEMLRMWYELDEESRRKYQKKAAACPDPSLSVWRPDIY
notes: human RPA1 residues 1060-1155, the dock II domain (HMG box-like foot insertion); The results call it MBP-dock II; the methods say that the His-MBP tag is C-terminal; also called full-length MBP-dock II; dock II-MBP fusion; source: E. coli BL21 (DE3) RIL, purified (Ni-NTA, Superdex 75); not shown: His, C-terminal, kept; MBP, C-terminal, kept
[2]
  binding: binds weakly
